This note sets out measurements from PubChem BioAssay AID493014 (National Center for Advancing Translational Sciences (NCATS), 2011).

A short description of the experiment: qHTS Assay to Find Inhibitors of Chronic Active B-Cell Receptor Signaling. Particulars: ABC-DLBCL IkBa-CBG/CBR reporter, luminescence ratio (green luciferase fused to IkBa over red control in TMD8 lymphoma cells), 4 h. A digest of the protocol:
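Doxycycline induced both beetle luciferases in TMD8 lymphoma cells; IKK-driven degradation limits the IkappaBalpha-fused green signal, while red luminescence normalises for cell number and nonspecific effects. Compounds tested up to 46 uM, 4 hrs.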
(qHTS replaces the single test concentration by a dilution series.)

[1] abbreviates: measured here: CBR red luminescence, cell number.

The other results are listed elsewhere or left out. Further columns of the screen follow, without active or inactive calls. The list favours compounds with an active or inconclusive main result. Words in brackets tell the shape of the fitted curve; partial curves, single points and poor fits give uncertain potencies.

Consider `O=C(COC(=O)c1cc([N+](=O)[O-])ccc1N1CCOCC1)Nc1cccc(F)c1`, for which the AC50 (commonly the midpoint of the concentration-response curve, whichever way the signal moves) under setting [1] is 3.55 µM [rising, partial curve, poor fit].
The same measure, in the same setting: the same measure for `COC(=O)CC1=C(C(=O)OC)[C@@H](c2ccccc2[N+](=O)[O-])C(C#N)=C(N)O1`: 3.55 µM [falling, partial curve, poor fit]; for `CCSc1nnc(NC(=O)c2ccc3ccccc3n2)s1`: 5.62 µM [falling, single point].
The same measure, in the same setting: then `CCN1CCN(Cc2ccc(NC(=O)c3cc(NC(=O)c4cncc(-c5ccc(C#N)cc5)c4)cc(OC)c3)cc2C(F)(F)F)CC1`, with 35.5 µM [rising, single point]; and `CCOc1ccc(-n2c(SCC(=O)N3CCC(C(=O)O)CC3)nc3ccccc3c2=O)cc1`, with 8.91 µM [falling, partial curve, poor fit]; and `Cc1ccc(S(=O)(=O)Oc2ccc(C3C4=C(CCCC4=O)N(CCC(=O)O)C4=C3C(=O)CCC4)cc2Cl)cc1`, with 16.4 µM [rising, partial curve, poor fit].
Still for that read-out and setting: the same measure for `COc1cc(/C=C/c2sc3ccccc3[n+]2CCCS(=O)(=O)[O-])ccc1O`: 7.08 µM [rising, partial curve, poor fit]; for `CC(/C=C/C=C/c1ccccc1)=N\NC(=O)c1cccnc1`: 35.5 µM [falling, single point].
Take `COc1cc(S(=O)(=O)NC2CCCC2)ccc1F`: the AC50 under setting [1] was 0.164 µM [rising, full curve, poor fit].
Still for that read-out and setting: then `O=C(Nc1cccc(C(F)(F)F)c1)c1cc2c(s1)-c1ccccc1OC2`, with 29.1 µM [rising, single point]; and `Cc1ccc(NC(=O)Nc2cccc(Cl)c2)c(C(=O)O)c1`, with 1.78 µM [falling, full curve, poor fit]; and `COC(=O)CCCCCCCCC(=O)Nc1nc2ccccc2s1`, with 1.58 µM [falling, full curve].
On the same count and under the same terms, then `CCOc1ccccc1-c1nnc(CS(=O)(=O)c2ccccc2)o1`, with 35.5 µM [falling, single point]; and `Cc1cccc(NC(=O)CC23CC4CC(C2)CC(n2nnc(C)n2)(C4)C3)c1`, with 0.411 µM [rising, full curve, poor fit]; and `Fc1ccc(Br)cc1C1C=C(c2ccc(Br)s2)Nc2ncnn21` (centres undefined), with 0.517 µM [rising, full curve, poor fit].
On the same count and under the same terms, the same measure for `Cc1ccccc1Nc1ncnc2c1cnn2Cc1ccccc1`: 10 µM [falling, partial curve]; for `c1ccc(-c2nc[nH]c2-c2ccccc2)cc1`: 8.2 µM [falling, partial curve, poor fit]; for `COc1ccc(C)cc1-n1nnnc1SCc1nc2ccccc2s1`: 3.16 µM [rising, single point].
On to `COc1cc2[nH]c(=O)n(C3CCCCC3)c(=O)c2cc1OC`, for which the AC50 under setting [1] is 8.2 µM [rising, partial curve, poor fit].
Consider `CN(C)C=NC(=O)c1cc(C(=O)c2ccc(C(C)(C)C)cc2)c[nH]1`, for which the AC50 under setting [1] was 5.62 µM [rising, single point].
The same measure, in the same setting: the same measure for `O=C(CSc1ccsc1[N+](=O)[O-])N1CCN(c2ccc(Cl)cc2)CC1`: 32.6 µM [rising, single point]; for `CCS(=O)(=O)c1ccc2oc(Nc3cc(Cl)ccc3OC)nc2c1`: 2.24 µM [rising, full curve, poor fit].
As for `Oc1ccc(-c2nc(-c3ccc(F)cc3)c(-c3ccncc3)[nH]2)cc1`, the AC50 under setting [1] is 9.2 µM [falling, partial curve, poor fit].
Same read-out and setting: then `Cc1onc(-c2ccccc2)c1C(=O)Nc1nnc(COc2ccc(Cl)cc2)s1`, with 6.51 µM [falling, partial curve, poor fit]; and `CCN(CC(=O)Nc1ccccc1OC)C(=O)CC1CC2CCC1C2` (centres undefined), with 23.1 µM [rising, partial curve]; and `COc1ccc(NC(=O)Cn2c(=O)oc3ccccc32)cc1`, with 25.1 µM [falling, single point].
On the same count and under the same terms, then `C[C@H](CO)N1C[C@H](C)[C@@H](CN(C)Cc2ccncc2)Oc2c(NS(=O)(=O)c3ccccc3)cccc2C1=O`, with 4.11 µM [rising, full curve].
On the same count and under the same terms, the same measure for `CCCCn1c(N)c(N(CC(C)C)C(=O)CCCc2nc3ccccc3c(=O)[nH]2)c(=O)[nH]c1=O`: 23.1 µM [rising, single point].
Regarding `Nc1nc(NCCN2CCOCC2)nc(NCc2ccccc2)c1[N+](=O)[O-]`, the AC50 under setting [1] is 20 µM [rising, partial curve, poor fit].
For `COc1cc(/C=C2/NC(=O)N(c3cccc(Cl)c3)C2=O)ccc1O`, the half-maximal activity concentration (AC50) under setting [1] is 10 µM [falling, single point].
The same measure, in the same setting: the same measure for `CNC(=S)NNC(=O)c1ccc2c(c1)OCO2`: 11.2 µM [falling, partial curve]; for `N/C(=N\OC(=O)c1cccc([N+](=O)[O-])c1)c1ccccn1`: 15.8 µM [falling, single point].
Turning to `CC(C)(O)CNC(=O)Nc1ccc(Cl)c(Cl)c1`, the AC50 under setting [1] is 0.562 µM [rising, full curve, poor fit].
On to `COc1cc(/C=N/N(C)c2ccccc2)cc(Cl)c1O`, for which the AC50 under setting [1] was 0.731 µM [rising, full curve, poor fit].
`COc1ccc(NC(=O)N(C)C[C@H]2Oc3c(NC(=O)C4CCCCC4)cccc3C(=O)N([C@H](C)CO)C[C@@H]2C)cc1`: the AC50 under setting [1] is 10.3 µM [rising, partial curve, poor fit].
On the same count and under the same terms, the same measure for `O=C(Nc1nnc(-c2ccncc2)o1)c1ccccc1F`: 11.2 µM [falling, partial curve]; for `Cc1ccc(C(=O)NC(=C(Cl)Cl)S(=O)(=O)c2ccc(C)cc2)cc1`: 5.8 µM [falling, full curve, poor fit].
The same measure, in the same setting: then `Cc1[nH]c2ccccc2c1N=Nc1cccc(C(=O)O)c1`, with 0.058 µM [falling, full curve].
As to `Cn1c(SCC(=O)N2c3ccccc3Sc3ccccc32)nc2ccccc21`, the AC50 was 0.00461 µM [rising, full curve, poor fit] under setting [1] and 20.6 µM [falling, partial curve, poor fit] (measured here: IkBa-CBG green luminescence).
In the case of `O=S(=O)(c1ccc(F)cc1)N1CCN(Cc2ccccc2C(F)(F)F)CC1`, the AC50 under setting [1] was 4.61 µM [falling, single point].
The same measure, in the same setting: then `CCN(CC)CCCNc1nc2cc(OC)c(OC)cc2c2nc(-c3ccccc3)nn12`, with 20.6 µM [falling, partial curve, poor fit]; and `Cc1cc(C)cc(Nc2cc(=O)n(C3CCCCC3)c(=O)[nH]2)c1`, with 35.5 µM [rising, single point]; and `COc1ccccc1NC(=O)c1cc2cc(Br)ccc2cc1O`, with 0.112 µM [falling, full curve].
Still for that read-out and setting: the same measure for `Nc1nc(N2CCOCC2)nc2ccccc12`: 0.146 µM [falling, full curve, poor fit]; for `COc1ccc(CNC(=O)CC2Sc3ccccc3NC2=O)cc1` (centres undefined): 3.16 µM [rising, partial curve, poor fit]; for `Cc1ccc(NC(=S)N=Nc2c(O)n(C)c3ccc(S(=O)(=O)N4CCOCC4)cc23)cc1C`: 29.1 µM [rising, single point].
On the same count and under the same terms, the same measure for `Cc1nn(C(C)(C)C)c(NC(=O)c2ccccc2)c1C#N`: 35.5 µM [rising, single point]; for `CNC(=O)CC1C(=O)N(c2ccc(F)cc2)C(=S)N1NC(=O)c1ccc(Cl)cc1` (centres undefined): 7.94 µM [falling, partial curve].
Regarding `O=C(NCCc1ccccc1)C1CCN(S(=O)(=O)c2ccc(Br)s2)CC1`, the AC50 under setting [1] was 3.66 µM [rising, partial curve, poor fit].
Same read-out and setting: the same measure for `C[C@@H]1CCC(=O)N(CC[C@H](N=[N+]=[N-])c2ccccc2)CC1`: 12.6 µM [rising, partial curve, poor fit]; for `CCOc1ccccc1NC(=O)C1CCCN(S(=O)(=O)c2ccccc2)C1` (centres undefined): 35.5 µM [falling, partial curve, poor fit].
On the same count and under the same terms, the same measure for `COc1ccc(S(=O)(=O)N(Cc2nc3ccccc3c(=O)[nH]2)C2CCCC2)cc1`: 32.6 µM [falling, single point]; for `COc1cc2cc(C(=O)NCCc3ccccc3)[nH]c2cc1OC`: 11.2 µM [rising, partial curve].
As for `CCOC(=O)c1ccccc1NC(=O)c1c(F)c(F)c(F)c(F)c1F`, the AC50 under setting [1] was 23.1 µM [falling, single point].
On the same count and under the same terms, then `Cc1ccnc(SCC(=O)c2ccc(Br)cc2)c1C#N`, with 23.1 µM [falling, single point].
On the same count and under the same terms, the same measure for `O=C(/C=C/c1c(F)cccc1Cl)c1ccc(F)cc1`: 31.6 µM [rising, single point]; for `O=C(c1ccc(Cn2cc(Br)cn2)o1)N1N=C(C(F)F)CC1(O)C(F)F` (centres undefined): 14.6 µM [falling, single point].
The same measure, in the same setting: the same measure for `Cc1cc(NC(=O)Cc2ccccc2)ccc1NC(=O)c1cccs1`: 12.6 µM [rising, partial curve, poor fit]; for `COc1cccc(Nc2nnc(-c3cc4ccc(O)cc4oc3=O)s2)c1`: 0.355 µM [falling, full curve, poor fit]; for `COc1ccc(/C=C/C(=O)N2CCNC(=O)C2)c(OC)c1`: 28.2 µM [falling, single point].
As to `Cc1cccc(-n2cnc3cc(C(=O)N4CCCCC4)ccc32)c1`, the AC50 under setting [1] is 3.55 µM [rising, single point].
Same read-out and setting: the same measure for `Nc1nc(CSC(=S)N2CCCCC2)nc(Nc2ccccc2)n1`: 35.5 µM [falling, single point]; for `Cc1cccc(NC(=O)CCN2C(=O)c3ccccc3S2(=O)=O)c1C`: 6.31 µM [falling, single point].
